This is an account of results in the supplement of paper PMC12823440, “Inhibitors supercharge kinase turnover through native proteolytic circuits” (Nature, 2025).

Sequences of proteins named here, by UniProt entry; tags and fusion partners are left off. A change or cut given only in a name is not applied to a line headed by its entry.
UniProt Q05397, whole entry, looked up: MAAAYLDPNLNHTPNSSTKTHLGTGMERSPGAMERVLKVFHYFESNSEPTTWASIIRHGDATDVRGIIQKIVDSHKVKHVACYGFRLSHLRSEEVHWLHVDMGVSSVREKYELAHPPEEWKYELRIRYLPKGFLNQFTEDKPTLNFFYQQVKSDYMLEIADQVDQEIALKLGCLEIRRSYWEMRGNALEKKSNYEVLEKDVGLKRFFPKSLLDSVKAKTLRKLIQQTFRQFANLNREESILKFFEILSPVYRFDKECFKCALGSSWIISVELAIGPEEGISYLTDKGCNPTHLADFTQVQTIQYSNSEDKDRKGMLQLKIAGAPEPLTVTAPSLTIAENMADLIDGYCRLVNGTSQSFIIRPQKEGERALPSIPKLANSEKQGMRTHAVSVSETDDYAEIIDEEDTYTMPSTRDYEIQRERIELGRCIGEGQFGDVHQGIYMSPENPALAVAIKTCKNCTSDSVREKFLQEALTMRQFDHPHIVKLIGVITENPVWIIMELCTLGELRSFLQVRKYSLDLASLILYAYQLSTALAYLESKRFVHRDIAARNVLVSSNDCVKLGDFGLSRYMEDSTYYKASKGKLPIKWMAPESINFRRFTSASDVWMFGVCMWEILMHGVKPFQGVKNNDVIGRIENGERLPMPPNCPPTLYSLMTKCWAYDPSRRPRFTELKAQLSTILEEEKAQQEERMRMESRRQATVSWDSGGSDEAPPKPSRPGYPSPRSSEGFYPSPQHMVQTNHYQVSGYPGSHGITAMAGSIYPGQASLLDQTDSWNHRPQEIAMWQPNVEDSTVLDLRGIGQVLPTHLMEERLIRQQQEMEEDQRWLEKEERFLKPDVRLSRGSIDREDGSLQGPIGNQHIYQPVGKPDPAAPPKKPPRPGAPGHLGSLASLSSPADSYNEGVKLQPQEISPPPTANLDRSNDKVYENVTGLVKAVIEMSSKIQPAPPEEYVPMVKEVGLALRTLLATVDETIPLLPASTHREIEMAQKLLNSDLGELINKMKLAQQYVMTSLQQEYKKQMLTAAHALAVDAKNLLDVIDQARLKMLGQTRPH
UniProt Q96GD4, whole entry: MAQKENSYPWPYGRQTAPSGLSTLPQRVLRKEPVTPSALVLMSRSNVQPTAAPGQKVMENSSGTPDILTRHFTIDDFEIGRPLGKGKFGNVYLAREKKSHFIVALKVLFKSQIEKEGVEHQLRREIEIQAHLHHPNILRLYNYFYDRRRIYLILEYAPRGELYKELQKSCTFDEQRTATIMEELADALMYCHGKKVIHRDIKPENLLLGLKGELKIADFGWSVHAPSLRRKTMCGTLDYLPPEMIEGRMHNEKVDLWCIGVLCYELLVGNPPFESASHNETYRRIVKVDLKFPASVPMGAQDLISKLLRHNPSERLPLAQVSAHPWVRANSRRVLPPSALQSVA
UniProt P29597: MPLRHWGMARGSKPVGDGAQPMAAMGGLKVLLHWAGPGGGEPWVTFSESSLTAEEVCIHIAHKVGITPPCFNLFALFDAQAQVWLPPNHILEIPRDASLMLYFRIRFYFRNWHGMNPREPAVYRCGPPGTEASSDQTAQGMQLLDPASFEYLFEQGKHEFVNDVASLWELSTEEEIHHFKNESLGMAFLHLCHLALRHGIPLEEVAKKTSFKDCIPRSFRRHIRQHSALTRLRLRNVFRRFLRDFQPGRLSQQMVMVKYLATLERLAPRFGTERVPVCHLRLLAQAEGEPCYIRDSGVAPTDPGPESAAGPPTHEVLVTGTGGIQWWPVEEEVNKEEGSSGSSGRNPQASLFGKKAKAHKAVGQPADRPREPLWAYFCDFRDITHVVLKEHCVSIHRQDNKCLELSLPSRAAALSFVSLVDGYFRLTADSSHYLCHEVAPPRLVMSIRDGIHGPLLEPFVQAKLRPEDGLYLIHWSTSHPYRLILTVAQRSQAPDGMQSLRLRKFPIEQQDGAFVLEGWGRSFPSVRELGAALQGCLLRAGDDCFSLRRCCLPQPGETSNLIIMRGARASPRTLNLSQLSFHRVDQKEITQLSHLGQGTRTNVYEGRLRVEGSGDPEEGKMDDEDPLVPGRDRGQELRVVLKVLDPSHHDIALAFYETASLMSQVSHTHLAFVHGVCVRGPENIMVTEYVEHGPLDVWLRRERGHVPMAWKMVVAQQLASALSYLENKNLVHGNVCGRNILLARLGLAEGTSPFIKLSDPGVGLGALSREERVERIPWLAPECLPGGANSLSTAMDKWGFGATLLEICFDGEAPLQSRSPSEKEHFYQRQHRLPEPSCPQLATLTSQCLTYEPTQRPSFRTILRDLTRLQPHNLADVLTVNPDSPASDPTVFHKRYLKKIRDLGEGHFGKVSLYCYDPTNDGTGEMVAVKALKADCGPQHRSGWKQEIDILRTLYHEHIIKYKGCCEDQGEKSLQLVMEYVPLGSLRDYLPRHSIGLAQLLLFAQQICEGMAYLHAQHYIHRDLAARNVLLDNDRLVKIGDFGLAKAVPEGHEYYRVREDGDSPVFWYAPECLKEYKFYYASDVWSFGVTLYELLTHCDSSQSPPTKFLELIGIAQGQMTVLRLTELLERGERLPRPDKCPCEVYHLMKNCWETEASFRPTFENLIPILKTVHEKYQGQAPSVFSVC
UniProt Q01974, whole entry: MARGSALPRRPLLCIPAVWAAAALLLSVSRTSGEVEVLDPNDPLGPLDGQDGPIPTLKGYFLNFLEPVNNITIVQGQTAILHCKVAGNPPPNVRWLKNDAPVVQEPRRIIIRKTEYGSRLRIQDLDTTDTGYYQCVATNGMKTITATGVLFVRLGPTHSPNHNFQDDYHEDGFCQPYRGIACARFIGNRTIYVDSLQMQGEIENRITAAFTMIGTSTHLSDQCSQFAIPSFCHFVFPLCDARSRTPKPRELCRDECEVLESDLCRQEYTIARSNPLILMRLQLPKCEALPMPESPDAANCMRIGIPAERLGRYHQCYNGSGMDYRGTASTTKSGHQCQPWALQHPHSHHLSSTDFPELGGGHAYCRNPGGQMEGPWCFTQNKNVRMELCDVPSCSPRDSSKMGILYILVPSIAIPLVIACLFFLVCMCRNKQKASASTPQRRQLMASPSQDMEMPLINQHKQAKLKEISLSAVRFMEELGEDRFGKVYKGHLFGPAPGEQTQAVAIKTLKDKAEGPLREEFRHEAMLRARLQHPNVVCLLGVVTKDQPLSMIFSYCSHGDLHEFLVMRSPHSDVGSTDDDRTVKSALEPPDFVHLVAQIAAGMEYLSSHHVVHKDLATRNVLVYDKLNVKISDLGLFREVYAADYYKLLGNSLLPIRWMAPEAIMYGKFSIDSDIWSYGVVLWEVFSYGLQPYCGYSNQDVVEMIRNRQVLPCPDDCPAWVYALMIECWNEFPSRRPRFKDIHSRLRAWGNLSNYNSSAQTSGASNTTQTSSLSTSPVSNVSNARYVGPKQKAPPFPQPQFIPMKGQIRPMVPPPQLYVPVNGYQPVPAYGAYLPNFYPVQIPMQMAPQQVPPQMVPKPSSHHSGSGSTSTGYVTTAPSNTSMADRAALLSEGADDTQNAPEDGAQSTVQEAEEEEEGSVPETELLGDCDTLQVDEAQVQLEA
UniProt Q00534, whole entry: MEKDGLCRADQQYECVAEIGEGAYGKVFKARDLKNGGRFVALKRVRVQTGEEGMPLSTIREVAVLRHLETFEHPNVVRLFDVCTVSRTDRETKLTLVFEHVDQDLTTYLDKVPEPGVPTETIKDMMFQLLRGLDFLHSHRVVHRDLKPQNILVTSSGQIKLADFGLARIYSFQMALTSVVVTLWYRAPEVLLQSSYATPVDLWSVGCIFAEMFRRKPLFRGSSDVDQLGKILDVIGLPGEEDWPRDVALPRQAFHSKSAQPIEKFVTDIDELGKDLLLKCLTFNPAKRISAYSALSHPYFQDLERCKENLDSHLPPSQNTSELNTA

Assay in all cases: number of time points (of 5) at which kinase-Nluc abundance scored as decreased, DMSO-normalised (count); higher = more persistent destabilization
Compound in test [1]: OCCn1cc(-c2cnc3nnn(Cc4ccc5ncccc5c4)c3n2)cn1
To be noted: 10 µM; K562; 2-18 h.

Compound in a further test: Oc1cccc(-c2nc(N3CCOCC3)c3oc4ncccc4c3n2)c1 [PI-103 (Hydrochloride)]
To be noted: 2.5 µM; K562; 2-18 h.

Compound in test [2]: Oc1cccc(-c2nc(N3CCOCC3)c3oc4ncccc4c3n2)c1
To be noted: 10 µM; K562; 2-18 h.

Compound in test [3]: c1cc(-c2cnn3cc(-c4ccc(OCCN5CCCCC5)cc4)cnc23)ccn1 [Dorsomorphin (dihydrochloride)]
To be noted: 2.5 µM; K562; 2-18 h.

Compound in a further test: c1cc(-c2cnn3cc(-c4ccc(OCCN5CCCCC5)cc4)cnc23)ccn1 [Dorsomorphin]
To be noted: 2.5 µM; K562; 2-18 h.

This is one part of the list. Hit calls seldom repeat between salt and free forms of one compound.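 In K562 cells expressing nanoluciferase-fused kinases, luminescence was recorded at 4 h intervals between 2 and 18 h, normalized as percent of control with DMSO at 100% and a positive control at 0%. A significant (2 sigma) signal drop marks a time point as decreased. The authors' rule for a hit is not shown and takes in more than the number of time points.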

On to PTK2 (UniProt Q05397), for which the “number of time points” value in test [1] was 0; with PI-103 (Hydrochloride) it was 0; in test [2], 0; in test [3], 2; with Dorsomorphin, 0.
For the target AURKB (UniProt Q96GD4), the “number of time points” value (in test [1]; with PI-103 (Hydrochloride); in test [2]; in test [3]; in the test with Dorsomorphin) was 0 in each case.
As to TYK2 (UniProt P29597), the “number of time points” value in test [1] was determined as 0; with PI-103 (Hydrochloride), 0; in test [2], 0; in test [3], 3; with Dorsomorphin, 0.
Regarding ROR2 (UniProt Q01974), the “number of time points” value (in test [1]; in the test with PI-103 (Hydrochloride); in test [2]; in test [3]; in the test with Dorsomorphin) was 0 in each case.
As to EGFR_T790M (UniProt P00533), the “number of time points” value (in test [1]; in the test with PI-103 (Hydrochloride); in test [2]; in test [3]; with Dorsomorphin) was 0 throughout.
For CDK6 (UniProt Q00534), the “number of time points” value (in test [1]; in the test with PI-103 (Hydrochloride); in test [2]; in test [3]; in the test with Dorsomorphin) was 0 throughout.
